Measurements published in the supplement of paper PMC4604168 (melanoma cell lines).
This is one part of the list. Single values are uncertain, as repeats are few or missing.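 Cells were imaged in 1,536-well plates, and nuclei stained with an antibody against cleaved PARP were counted against all DNA-stained nuclei to give the apoptosis fraction. Screening doses were chosen to leave most cells alive, and resting and induced cleaved-PARP levels differ strongly between cell lines.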

Key:
Test in all cases: cleaved PARP positive nuclei fraction relative to DMSO control; melanoma cells; higher = more apoptosis
Settings in all cases: library dose: low library concentration; 72 h
WM115 = tested on: WM115
WM1716 = tested on: WM1716
WM1745 = tested on: WM1745
WM3526 = tested on: WM3526
WM3619 = tested on: WM3619
WM451Lu = tested on: WM451Lu

SMILES	cleaved PARP positive nuclei fraction (WM115) [%]	cleaved PARP positive nuclei fraction (WM1716) [%]	cleaved PARP positive nuclei fraction (WM1745) [%]	cleaved PARP positive nuclei fraction (WM3526) [%]	cleaved PARP positive nuclei fraction (WM3619) [%]	cleaved PARP positive nuclei fraction (WM451Lu) [%]
Cn1cnc2c(F)c(Nc3ccc(Br)cc3Cl)c(C(=O)NOCCO)cc21 [selumetinib] + OCc1c[nH]c2ccccc12 [Indole-3-carbinol] (first compound 0.015 µM, partner dose 0.8 µM)	63.9	543	108	48.2	143	80.7
CC1(C)CCC(c2ccc(Cl)cc2)=C(CN2CCN(c3ccc(C(=O)NS(=O)(=O)c4ccc(N[C@H](CCN5CCOCC5)CSc5ccccc5)c(S(=O)(=O)C(F)(F)F)c4)cc3)CC2)C1 + CC(=O)O[C@@]12CO[C@@H]1C[C@H](O)[C@@]1(C)C(=O)[C@H](O)C3=C(C)[C@@H](OC(=O)[C@H](O)[C@@H](NC(=O)OC(C)(C)C)c4ccccc4)C[C@@](O)([C@@H](OC(=O)c4ccccc4)[C@H]21)C3(C)C [Docetaxel] (first compound 0.4 µM, partner dose 0.0001 µM)	1270	395	1120	1210	263	453
C[C@@H](N)c1ccc(C(=O)Nc2ccnc3[nH]ccc23)cc1 + COc1ccc(COc2ccc(Cc3cnc(N)nc3N)cc2OC)cc1 [GW2580] (first compound 0.4 µM, partner dose 1 µM)	116	103	118	74	93.6	137
